Experimental data published in article PMC4077741, “Miz-1 Activates Gene Expression via a Novel Consensus DNA Binding Motif”.

Tests used:
[1] = target: T1, MBP-Miz-1-ZF (Homo sapiens) (UniProt Q13105); assay: EMSA; details: EMSA: ZBA (10 mM Tris pH 7.5, 90 mM KCl, 1 mM MgCl2, 90 uM ZnCl2, 5 mM DTT) with 100 ng/ul poly(dI-dC), 15 min, room temperature, recombinant protein, residues 269-793, protein details: N-terminal MBP
T1 sequence (Q13105 269-793, looked up): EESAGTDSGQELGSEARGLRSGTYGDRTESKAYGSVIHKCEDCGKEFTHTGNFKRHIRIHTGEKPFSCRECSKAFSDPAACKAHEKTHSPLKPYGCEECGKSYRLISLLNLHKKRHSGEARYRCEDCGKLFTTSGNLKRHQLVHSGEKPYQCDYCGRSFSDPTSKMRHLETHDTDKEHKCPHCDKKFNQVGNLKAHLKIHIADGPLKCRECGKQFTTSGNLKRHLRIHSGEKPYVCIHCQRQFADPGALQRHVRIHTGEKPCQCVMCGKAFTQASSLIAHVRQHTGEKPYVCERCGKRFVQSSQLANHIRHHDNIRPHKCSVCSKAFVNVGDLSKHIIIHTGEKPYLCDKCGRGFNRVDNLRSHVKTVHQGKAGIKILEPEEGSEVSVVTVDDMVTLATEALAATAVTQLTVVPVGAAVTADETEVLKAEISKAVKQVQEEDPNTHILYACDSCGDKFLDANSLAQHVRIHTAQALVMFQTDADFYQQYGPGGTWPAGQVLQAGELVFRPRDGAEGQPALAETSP

[2] = target: T2, Miz-1 untagged (Homo sapiens) (UniProt Q13105); assay: EMSA; details: lower affinity than P1; EMSA: ZBA (10 mM Tris pH 7.5, 90 mM KCl, 1 mM MgCl2, 90 uM ZnCl2, 5 mM DTT) with 100 ng/ul poly(dI-dC), 15 min, room temperature; protein translated in vitro
T2 sequence (looked up, limits assumed): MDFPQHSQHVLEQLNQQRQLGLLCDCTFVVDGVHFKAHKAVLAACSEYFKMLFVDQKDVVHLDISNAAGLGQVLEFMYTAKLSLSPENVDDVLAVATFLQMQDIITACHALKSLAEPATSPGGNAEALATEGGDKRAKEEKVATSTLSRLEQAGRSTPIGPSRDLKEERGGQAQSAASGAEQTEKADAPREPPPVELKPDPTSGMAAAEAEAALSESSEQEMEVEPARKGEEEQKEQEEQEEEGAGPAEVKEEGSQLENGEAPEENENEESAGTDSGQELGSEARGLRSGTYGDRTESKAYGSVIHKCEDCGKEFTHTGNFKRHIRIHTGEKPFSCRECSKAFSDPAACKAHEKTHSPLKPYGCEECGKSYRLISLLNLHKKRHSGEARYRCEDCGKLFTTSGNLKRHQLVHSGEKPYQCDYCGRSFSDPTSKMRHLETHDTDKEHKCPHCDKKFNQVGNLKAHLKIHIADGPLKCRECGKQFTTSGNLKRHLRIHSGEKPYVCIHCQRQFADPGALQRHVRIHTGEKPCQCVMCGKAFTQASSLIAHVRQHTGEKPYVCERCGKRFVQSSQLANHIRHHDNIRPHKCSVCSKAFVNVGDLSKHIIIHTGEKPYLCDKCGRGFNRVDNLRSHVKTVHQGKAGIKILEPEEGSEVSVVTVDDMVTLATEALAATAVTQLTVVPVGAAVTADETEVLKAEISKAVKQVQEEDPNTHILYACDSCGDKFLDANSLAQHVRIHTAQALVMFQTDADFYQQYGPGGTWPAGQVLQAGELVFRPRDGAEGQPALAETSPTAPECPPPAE

[3] = target: T1, MBP-Miz-1-ZF (Homo sapiens); assay: competition with a labelled probe; details: EMSA: ZBA (10 mM Tris pH 7.5, 90 mM KCl, 1 mM MgCl2, 90 uM ZnCl2, 5 mM DTT) with 100 ng/ul poly(dI-dC), 15 min, room temperature, recombinant protein, residues 269-793, protein details: N-terminal MBP
MBP (unfused) (E. coli) = MBP (unfused) (E. coli) (UniProt P0AEX9); assay: EMSA; details: tag-only control; EMSA: ZBA (10 mM Tris pH 7.5, 90 mM KCl, 1 mM MgCl2, 90 uM ZnCl2, 5 mM DTT) with 100 ng/ul poly(dI-dC), 15 min, room temperature; recombinant protein
Cux1 = assay: EMSA; details: EMSA: ZBA (10 mM Tris pH 7.5, 90 mM KCl, 1 mM MgCl2, 90 uM ZnCl2, 5 mM DTT) with 100 ng/ul poly(dI-dC), 15 min, room temperature; protein in an extract; label: 5' IRDye 700
[4] = target: T3, MBP-Miz-1-FL (Homo sapiens) (UniProt Q13105); assay: competition with a labelled probe; details: EMSA: ZBA (10 mM Tris pH 7.5, 90 mM KCl, 1 mM MgCl2, 90 uM ZnCl2, 5 mM DTT) with 100 ng/ul poly(dI-dC), 15 min, room temperature, recombinant protein, protein details: N-terminal MBP, label: none (unlabeled competitor)
T3 sequence (looked up, limits assumed): T2 sequence (looked up, limits assumed)

AGGGTTGGTATCGATTATCGAGTT (double strand) [P2]
binding result [1]: binds
binding result [2]: binds more weakly
binding result ([3]; 200-fold unlabeled P2 vs labeled P1, less able to compete than other combinations): binds more weakly
binding result ([3]; 200-fold unlabeled P2 vs labeled P2): binds

GAATTATCGGTAATCCATCGAGGT (double strand) [P1]
binding result (MBP (unfused) (E. coli)): no binding
binding result [1]: binds
binding result ([3]; 200-fold unlabeled P1 vs labeled P2): binds

ACCCTTATATCGGTAATCGGTAAG (double strand) [P1m3]
binding result ([3]; unlabeled P1m3 vs labeled P1 or P2, range over both proteins and probes, label: none (unlabeled competitor)): binds

CAAAAGTGCGGCTGCGTGGTGCAC (double strand) [CP]
binding result (Cux1): no binding
binding result ([1]; label: 5' IRDye 700): no binding

GAATTATCCGTAATGCATCGAGGT (double strand) [P1m2]
binding result ([4]; unlabeled P1m2 vs labeled P1 or P2): binds more weakly
binding result ([3]; unlabeled P1m2 vs labeled P2, label: none (unlabeled competitor)): binds more weakly

AGGGTTGGTATGGATTAACGAGTT (double strand) [P2m2]
binding result ([4]; unlabeled P2m2 vs labeled P1 or P2): binds more weakly
binding result ([3]; unlabeled P2m2 vs labeled P1 or P2, label: none (unlabeled competitor)): binds more weakly

AGGGTTGGTATCAATTATCTAGTT (double strand) [P2m1]
binding result ([4]; unlabeled P2m1 vs labeled P1 or P2): binds more weakly
binding result ([3]; unlabeled P2m1 vs labeled P1 or P2, label: none (unlabeled competitor)): binds more weakly

GAATTAGGAGTAAACCATCGAGGT (double strand) [P1m1]
binding result ([4]; unlabeled P1m1 vs labeled P1 or P2): binds more weakly
binding result ([3]; unlabeled P1m1 vs labeled P2, label: none (unlabeled competitor)): binds more weakly

For part of these data: Negatives hold for the conditions tested. For part of these data: For at least one entry, the source does not settle the construct or the ends of the probe. For part of these data: The comparison behind a weaker result is the experiment's own reference, which may not be listed here. For part of these data: Where a protein sequence is shown, tags need not be part of it. For part of these data: Where cells or extracts were used, other partners may take part.
